Test results taken from PubChem BioAssay AID2685 (National Center for Advancing Translational Sciences (NCATS), 2010).
The other results are listed elsewhere or left out. The main result of the screen is listed elsewhere. These columns were measured beside it and carry no call. Compounds called inactive in the main read-out are mostly missing here. Potencies come from curve fits of mixed quality, noted in brackets.

Experiment: qHTS Assay for Lipid Storage Modulators in Drosophila S3 Cells;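 on cell number change: cells counted by Cell Tracker Red CMTPX staining in the red channel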
Settings: BODIPY lipid droplet fluorescence, 18-24 h; for cell number change: measured here: cell count max response, cells fed with added oleic acid
Outline: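 Drosophila S3 cells loaded with oleic acid (400 uM, as added) and compounds at several concentrations; lipid droplets imaged by 488-nm laser-scanning cytometry, 500–530 nm intensity and object ratio to cell channel. Percent activity normalized to 20 uM Triacsin C.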

[1] = measured here: lipid fluorescence (Fed channel) AC50, cells fed with added oleic acid
[2] = measured here: cell number channel AC50, cells fed with added oleic acid

SMILES	cell number change [%]	AC50 [1]	AC50 [2]
CCOC(=O)N1CCc2c(sc3c2c(=O)n(Cc2ccccc2)c(=O)n3Cc2cccc(C)c2)C1	8.22		
COc1cn(-c2ccccc2)nc1C(=O)Nc1ccc(C)cc1Cl	22.6		
CC1c2[nH]c3ccccc3c2C[C@H]2C(=O)N(CCCN(C)C)CC(=O)N12 (stereo partly specified)	-4.25	20.6 µM [rising, partial curve]	
CCCNC(=O)c1ccc(N2CCC3(CC2)CC(c2ccc(Cl)cc2)=NO3)c([N+](=O)[O-])c1		29.1 µM [falling, single point]	
Cc1cccc(NC(=O)CN2C(=O)N/C(=C/c3ccc(-c4cccc(C(=O)O)c4C)o3)C2=O)c1	-50	29.1 µM [falling, single point]	29.1 µM [falling, single point]
Cc1cccc(OCC(=O)NNC(=O)CCc2ccccc2)c1	10.6	0.164 µM [rising, partial curve]	
CCc1cc2c(=O)[nH]c(CC(N)=O)nc2s1	-36	25.9 µM [falling, single point]	
CCOC(=O)N1CCN(C(=O)C2CCN(c3ncnc4c3sc3cccc(F)c34)CC2)CC1	-13.2		
CCOC(=O)N1CCN(c2c(NCCCOC(C)C)c(=O)c2=O)CC1		0.651 µM [falling, single point]	
Cc1ccc(-n2c(C)cc(/C=N/NC(=O)Cn3c4ccccc4c(=O)c4ccccc43)c2C)cc1	-16.3		
O=C(Nc1cccc(S(=O)(=O)N2CCCCC2)c1)c1ccc2c(c1)OCO2	-50	0.206 µM [rising, full curve, poor fit]	
COC(=O)c1cccc2c1NC(=O)C2=O	14.2	0.00517 µM [rising, full curve, poor fit]	0.0366 µM [rising, full curve, poor fit]
C/C(=N\NC(=O)c1nn(C)c(C)c1Br)c1ccc(NC(=O)c2ccoc2C)cc1	-34.2	29.1 µM [falling, single point]	20.6 µM [falling, single point]
CC1=C(C(N)=O)C(c2ccc(F)cc2)n2nc(CCCO)nc2N1 (stereo unspecified)	20.4		
COc1ccccc1CNC(=O)c1cccc(S(=O)(=O)N2CCN(C)CC2)c1	-2.6	0.0058 µM [falling, partial curve, poor fit]	2.06 µM [falling, single point]
O=C(Nc1nccs1)c1cc2sccc2n1Cc1ccc(Cl)cc1	-20.2	16.4 µM [rising, single point]	
N#C/C(=C/c1ccncc1)c1nc2ccccc2c(=O)[nH]1		1.84 µM [rising, partial curve]	
COc1ccc(Cl)cc1NC(=O)CC(=O)Nc1cc(Cl)ccc1OC	58.1	29.1 µM [rising, single point]	29.1 µM [rising, single point]
O=C(Cc1noc2ccccc12)Nc1ccccn1	52	29.1 µM [rising, single point]	29.1 µM [rising, single point]

Taken from above:
cell number change [%] with Cc1ccc(-n2c(C)cc(/C=N/NC(=O)Cn3c4ccccc4c(=O)c4ccccc43)c2C)cc1 is entered as -16.3
cell number change [%] with CCc1cc2c(=O)[nH]c(CC(N)=O)nc2s1 is entered as -36

Following part:

SMILES	cell number change [%]	AC50 [1]	AC50 [2]
CCCc1cc2nnc(SCC(=O)N(C)C3CCCCC3)n2c(N)n1	7.83	0.366 µM [rising, full curve]	
Cc1cccc(-c2noc(CCC(=O)NC3CCCCC3)n2)c1	39.9	20.6 µM [rising, single point]	7.31 µM [rising, full curve, poor fit]
COc1cc(NC(=O)CN(C)S(=O)(=O)c2ccc(-c3ccc(=O)[nH]n3)s2)cc(OC)c1	41.2		18.4 µM [rising, single point]
Cc1ccc(-n2nc(C)c3c(C)c(CCC(=O)NCC4CCCO4)c(=O)n(C)c32)cc1 (stereo unspecified)	3.99		
N/C(=N\OC(=O)CC1CCCCC1)c1ccncc1	21.5	6.51 µM [rising, partial curve]	
CCSc1nnc(NC(=O)C2CC(=O)N(Cc3ccccc3)C2)s1 (stereo unspecified)	38.1	20.6 µM [rising, single point]	23.1 µM [rising, single point]
O=C(NCc1cccc(Cl)c1)C1CCC(=O)N(CCCN2CCOCC2)C1 (stereo unspecified)	15.1	6.51 µM [rising, single point]	
CCCOc1c(Cl)cc(C(=O)NC)cc1OC	-20.2	0.651 µM [falling, partial curve, poor fit]	0.058 µM [falling, full curve, poor fit]
Cc1cc(C)cc(NC(=O)CSc2nnc(C3CC3)n2CC2CCCO2)c1 (stereo unspecified)		3.66 µM [rising, partial curve]	
COC(=O)c1ccc(NC(=O)Nc2ccc(F)c(Cl)c2)cc1	-64.1		20.6 µM [falling, partial curve]
COc1cccc(OC(=O)c2cc3ccccc3oc2=O)c1	-9.16		1.16 µM [rising, full curve]
CCN(CC)c1ccc(C2N(C(=O)N3CCOCC3)CCN2S(=O)(=O)c2ccc(C)cc2)cc1 (stereo unspecified)	17.6	0.58 µM [rising, single point]	
Cc1ccccc1C(=O)Nc1ccnc(-c2ccncc2)n1	34.7		
CCC1CCCCN1Cc1ccc(OC)c(C)c1C (stereo unspecified)	-77.6		16.4 µM [falling, partial curve]
CCO/N=C/C(=O)Nc1ccc(F)cc1F	-21	29.1 µM [falling, single point]	
Cc1ccc(Cn2c(=O)n(C)c(=O)c3sccc32)cc1	-12.5	1.3 µM [rising, full curve]	
Cc1ccc(C)c(OCC(=O)N/N=C/c2c(C)nn(-c3ccccc3)c2Cl)c1	-19.9	0.13 µM [rising, full curve, poor fit]	3.66 µM [rising, partial curve, poor fit]
CCOC(=O)c1c(C)cc(=O)oc1C	-71	20.6 µM [falling, partial curve]	32.6 µM [falling, partial curve]
CCOc1ccccc1CNc1nc2nc3c(c(=O)n2[nH]1)CCC3	3.52	6.51 µM [falling, single point]	
